Assay results: patent publication US20230108730A1, “BIENZYMATIC BIOSENSOR FOR THE DETECTION OF LACTULOSE IN BLOOD” (TRIVIUMVET DESIGNATED ACTIVITY COMPANY, priority 2020, published 2023)

Test: Plasma lactulose after oral lactulose solution in canine NSAID-induced gastric ulceration model (ion chromatography)
Assay type: in vivo, dog
Conditions: cut-off plasma lactulose >100 μM within 60 mins of oral 20% w/v lactulose solution; canine study group
Description: A model of canine gastric ulceration was developed using a combination of orally administered nonsteroidal anti-inflammatory drugs (NSAIDs) at doses appropriate to induce ulceration without concomitant renal or hepatic dysfunction. Healthy laboratory dogs (14.0 to 16.7 kg) were screened to exclude individuals with clinically silent disorders, including gastrointestinal disease. Under the GCP study protocol, each dog was administered 50 ml of a 20% w/v lactulose solution orally (0.6-0.7 g/kg lactulose PO) following a 24-h fast at baseline and following a period of ulcer induction. On each occasion, peripheral venous blood was drawn from each dog into 1.3-ml Sarstedt blood tubes containing lithium heparin as an anticoagulant at 10, 20, 30 and 60 minutes following bolus administration of the lactulose solution. The Sarstedt tube product number was 41.1393.005. […] Prior to lactulose administration, endoscopy was performed on each dog, and the presence and extent of gastric ulceration were assessed by a blinded specialist veterinary gastroenterologist. […] Following thawing, the samples were analysed for lactulose concentration using an ion chromatography method previously developed using blank plasma samples spiked with known concentrations of lactulose. […] The supernatants were analysed directly by ion chromatography. […] Samples were analysed in duplicate. […]

Q: With `OC[C@H]1O[C@@H](O[C@@H]2[C@@H](CO)OC(O)(CO)[C@H]2O)[C@H](O)[C@@H](O)[C@H]1O` (mixture of isomers) [Lactulose, lactulose] as the compound, how does the “sensitivity for induced gastric ulceration” value read?
A: Its value is 75%.

Q: And the “specificity for induced gastric ulceration” value?
A: The value was 100%.
